According to publication PMC13261364 (International journal of biological macromolecules, 2025):
Values joined by “and” are separate entries in the source; they are usually repeats but may differ in a detail not shown here. Equal entries are not always repeated. Where two headings read alike, the source gives them in different places.

Chains of the proteins cited; added tags and fusions are not shown.
UniProt Q9HT34, entry or part of it: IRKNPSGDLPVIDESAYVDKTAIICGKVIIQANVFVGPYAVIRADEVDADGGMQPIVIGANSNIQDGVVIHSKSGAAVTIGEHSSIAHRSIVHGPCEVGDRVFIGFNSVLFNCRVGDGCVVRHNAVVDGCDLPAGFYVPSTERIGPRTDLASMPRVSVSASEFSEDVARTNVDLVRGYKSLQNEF

Assays:
[1] = biological target: psCA1; settings: read-out: KI psCA1; 20 °C, 10 mM Tris buffer, 20 mM NaClO4 pH 8.3; ref [52]; cited from earlier work
[2] = biological target: PaCAγ1 (Pseudomonas aeruginosa, UniProt Q9HT34); experiment: biochemical
[3] = Stopped-Flow assay, mean from 3 different assays, read-out: KI PaCAγ1

SMILES	Ki [1]	Ki ([2]; KI (nM, AAZ) PaCAγ1, 20 °C, 20 mM TRIS pH 7.4, 10 mM NaClO4)	Ki [2, 3]
CC(=O)Nc1nnc(S(N)(=O)=O)s1 [AAZ, acetazolamide]	37 nM	47.2 ± 2.17 nM	47.2 ± 2.17 nM
CCN[C@H]1C[C@H](C)S(=O)(=O)c2sc(S(N)(=O)=O)cc21 [DZA]	–	–	< 1000 nM and 169 nM
